Laboratory results: the supplement of paper PMC7661543
± gives the standard deviation of the averaged measurements. Differences between knockout arms are mostly noise.

System: HCC-38
Test: relative cell number vs DMSO control (72 h) (% of DMSO); higher = less growth inhibition (more cells)
Description: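 QMAP-Seq: a pool of 5 breast cancer cell lines (ZR-75-1, SKBR3, HCC-38, MDA-MB-231, BT-20), each carrying 12 doxycycline-inducible Cas9 sgRNA perturbations (11 knockouts plus non-targeting sgNT), was treated with compounds for 72 h at four 10-fold doses (10 nM-10 uM or 1 nM-1 uM range). Barcodes were amplified and sequenced, and cell number was interpolated from 293T spike-in standard curves. The result is expressed as % of the median of DMSO wells. Two biological replicates.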

Cc1cn(-c2cc(NC(=O)c3ccc(C)c(Nc4nccc(-c5cccnc5)n4)c3)cc(C(F)(F)F)c2)cn1 [Nilotinib]
Conditions | relative cell number
sgRNA knockout: sgATF3, 10 nM | 107 ± 2.8
sgRNA knockout: sgATF3, 100 nM | 94.5 ± 10
sgRNA knockout: sgATF3, 1000 nM | 106 ± 6.4
sgRNA knockout: sgATF3, 10000 nM | 90.1 ± 35
sgRNA knockout: sgATF4, 10 nM | 101 ± 2.8
sgRNA knockout: sgATF4, 100 nM | 94.1 ± 5.8
sgRNA knockout: sgATF4, 1000 nM | 94.9 ± 13
sgRNA knockout: sgATF4, 10000 nM | 94.2 ± 38
sgRNA knockout: sgATF6, 10 nM | 103 ± 10
sgRNA knockout: sgATF6, 100 nM | 108 ± 2.4
sgRNA knockout: sgATF6, 1000 nM | 114 ± 5
sgRNA knockout: sgATF6, 10000 nM | 92.8 ± 8.9
sgRNA knockout: sgATG7, 10 nM | 97.42 ± 0.08
sgRNA knockout: sgATG7, 100 nM | 102 ± 13
sgRNA knockout: sgATG7, 1000 nM | 102 ± 3.4
sgRNA knockout: sgATG7, 10000 nM | 85 ± 27
sgRNA knockout: sgERN1, 10 nM | 89.4 ± 7.3
sgRNA knockout: sgERN1, 100 nM | 108 ± 7.8
sgRNA knockout: sgERN1, 1000 nM | 108 ± 0.71
sgRNA knockout: sgERN1, 10000 nM | 82.2 ± 20
sgRNA knockout: sgHSF1, 10 nM | 117 ± 11
sgRNA knockout: sgHSF1, 100 nM | 109 ± 1.9
sgRNA knockout: sgHSF1, 1000 nM | 108 ± 13
sgRNA knockout: sgHSF1, 10000 nM | 84.8 ± 7
sgRNA knockout: sgHSF2, 10 nM | 108 ± 8.1
sgRNA knockout: sgHSF2, 100 nM | 104.2 ± 0.32
sgRNA knockout: sgHSF2, 1000 nM | 103 ± 14
sgRNA knockout: sgHSF2, 10000 nM | 94.6 ± 28
sgRNA knockout: sgKEAP1, 10 nM | 99.7 ± 3.6
sgRNA knockout: sgKEAP1, 100 nM | 113 ± 20
sgRNA knockout: sgKEAP1, 1000 nM | 120 ± 18
sgRNA knockout: sgKEAP1, 10000 nM | 65.56 ± 0.45
sgRNA knockout: sgNFE2L2, 10 nM | 92.2 ± 4.3
sgRNA knockout: sgNFE2L2, 100 nM | 90.3 ± 8.3
sgRNA knockout: sgNFE2L2, 1000 nM | 103 ± 13
sgRNA knockout: sgNFE2L2, 10000 nM | 100 ± 42
sgRNA knockout: sgSLC35F2, 10 nM | 91.7 ± 12
sgRNA knockout: sgSLC35F2, 100 nM | 95.6 ± 8.5
sgRNA knockout: sgSLC35F2, 1000 nM | 108 ± 4.9
sgRNA knockout: sgSLC35F2, 10000 nM | 97.1 ± 36
sgRNA knockout: sgXBP1, 10 nM | 96.1 ± 9.7
sgRNA knockout: sgXBP1, 100 nM | 91.9 ± 16
sgRNA knockout: sgXBP1, 1000 nM | 96.2 ± 3.3
sgRNA knockout: sgXBP1, 10000 nM | 99.3 ± 31

O=C(c1cc(Cc2n[nH]c(=O)c3ccccc23)ccc1F)N1CCN(C(=O)C2CC2)CC1 [Olaparib]
Conditions | relative cell number
sgRNA knockout: sgATF3, 10 nM | 102 ± 12
sgRNA knockout: sgATF3, 100 nM | 103 ± 1.7
sgRNA knockout: sgATF3, 1000 nM | 86.4 ± 17
sgRNA knockout: sgATF3, 10000 nM | 68.9 ± 0.94
sgRNA knockout: sgATF4, 10 nM | 90.6 ± 5.3
sgRNA knockout: sgATF4, 100 nM | 108 ± 7.9
sgRNA knockout: sgATF4, 1000 nM | 87 ± 8.1
sgRNA knockout: sgATF4, 10000 nM | 66.3 ± 3.2
sgRNA knockout: sgATF6, 10 nM | 93.5 ± 5.2
sgRNA knockout: sgATF6, 100 nM | 101 ± 4.8
sgRNA knockout: sgATF6, 1000 nM | 89.3 ± 17
sgRNA knockout: sgATF6, 10000 nM | 71 ± 13
sgRNA knockout: sgATG7, 10 nM | 100.6 ± 0.24
sgRNA knockout: sgATG7, 100 nM | 107 ± 3.6
sgRNA knockout: sgATG7, 1000 nM | 81.2 ± 18
sgRNA knockout: sgATG7, 10000 nM | 62 ± 2.1
sgRNA knockout: sgERN1, 10 nM | 87.8 ± 9.9
sgRNA knockout: sgERN1, 100 nM | 101 ± 12
sgRNA knockout: sgERN1, 1000 nM | 83.2 ± 8.7
sgRNA knockout: sgERN1, 10000 nM | 62.4 ± 3.2
sgRNA knockout: sgHSF1, 10 nM | 91.2 ± 1.2
sgRNA knockout: sgHSF1, 100 nM | 87.7 ± 3.5
sgRNA knockout: sgHSF1, 1000 nM | 74.6 ± 17
sgRNA knockout: sgHSF1, 10000 nM | 64.7 ± 2.3
sgRNA knockout: sgHSF2, 10 nM | 91.6 ± 5.2
sgRNA knockout: sgHSF2, 100 nM | 108.5 ± 0.4
sgRNA knockout: sgHSF2, 1000 nM | 87.4 ± 10
sgRNA knockout: sgHSF2, 10000 nM | 68 ± 3.4
sgRNA knockout: sgKEAP1, 10 nM | 114 ± 3.8
sgRNA knockout: sgKEAP1, 100 nM | 92.6 ± 6.9
sgRNA knockout: sgKEAP1, 1000 nM | 92.8 ± 2.2
sgRNA knockout: sgKEAP1, 10000 nM | 67.9 ± 35
sgRNA knockout: sgNFE2L2, 10 nM | 93.4 ± 8.9
sgRNA knockout: sgNFE2L2, 100 nM | 112 ± 9.2
sgRNA knockout: sgNFE2L2, 1000 nM | 78.7 ± 17
sgRNA knockout: sgNFE2L2, 10000 nM | 64.9 ± 1.8
sgRNA knockout: sgSLC35F2, 10 nM | 95.9 ± 7.9
sgRNA knockout: sgSLC35F2, 100 nM | 106 ± 6.1
sgRNA knockout: sgSLC35F2, 1000 nM | 85 ± 30
sgRNA knockout: sgSLC35F2, 10000 nM | 67.3 ± 5.1
sgRNA knockout: sgXBP1, 10 nM | 92.2 ± 1
sgRNA knockout: sgXBP1, 100 nM | 102 ± 3.1
sgRNA knockout: sgXBP1, 1000 nM | 82.3 ± 7.3
sgRNA knockout: sgXBP1, 10000 nM | 64.8 ± 1.5

CCCS(=O)(=O)Nc1ccc(F)c(C(=O)c2c[nH]c3ncc(Cl)cc23)c1F [PLX4720]
Conditions | relative cell number
sgRNA knockout: sgATF3, 10 nM | 93.2 ± 7.7
sgRNA knockout: sgATF3, 100 nM | 121 ± 4.1
sgRNA knockout: sgATF3, 1000 nM | 106 ± 6.2
sgRNA knockout: sgATF3, 10000 nM | 102 ± 3.1
sgRNA knockout: sgATF4, 10 nM | 96.5 ± 2.7
sgRNA knockout: sgATF4, 100 nM | 119 ± 15
sgRNA knockout: sgATF4, 1000 nM | 111 ± 29
sgRNA knockout: sgATF4, 10000 nM | 97.9 ± 16
sgRNA knockout: sgATF6, 10 nM | 99.3 ± 3.7
sgRNA knockout: sgATF6, 100 nM | 93.2 ± 3
sgRNA knockout: sgATF6, 1000 nM | 122 ± 4.3
sgRNA knockout: sgATF6, 10000 nM | 117 ± 21
sgRNA knockout: sgATG7, 10 nM | 91.8 ± 6
sgRNA knockout: sgATG7, 100 nM | 117 ± 3.8
sgRNA knockout: sgATG7, 1000 nM | 114 ± 23
sgRNA knockout: sgATG7, 10000 nM | 95.4 ± 6.1
sgRNA knockout: sgERN1, 10 nM | 97.8 ± 14
sgRNA knockout: sgERN1, 100 nM | 109 ± 3.2
sgRNA knockout: sgERN1, 1000 nM | 113 ± 20
sgRNA knockout: sgERN1, 10000 nM | 108 ± 6.7
sgRNA knockout: sgHSF1, 10 nM | 102 ± 6.4
sgRNA knockout: sgHSF1, 100 nM | 106 ± 5.5
sgRNA knockout: sgHSF1, 1000 nM | 108 ± 10
sgRNA knockout: sgHSF1, 10000 nM | 126 ± 35
sgRNA knockout: sgHSF2, 10 nM | 99.1 ± 2.6
sgRNA knockout: sgHSF2, 100 nM | 106 ± 14
sgRNA knockout: sgHSF2, 1000 nM | 118 ± 12
sgRNA knockout: sgHSF2, 10000 nM | 106 ± 2.2
sgRNA knockout: sgKEAP1, 10 nM | 95.1 ± 12
sgRNA knockout: sgKEAP1, 100 nM | 97.7 ± 9
sgRNA knockout: sgKEAP1, 1000 nM | 97 ± 18
sgRNA knockout: sgKEAP1, 10000 nM | 110 ± 5.3
sgRNA knockout: sgNFE2L2, 10 nM | 96.5 ± 14
sgRNA knockout: sgNFE2L2, 100 nM | 121 ± 9.2
sgRNA knockout: sgNFE2L2, 1000 nM | 105 ± 20
sgRNA knockout: sgNFE2L2, 10000 nM | 93.7 ± 9.9
sgRNA knockout: sgSLC35F2, 10 nM | 93.3 ± 9.1
sgRNA knockout: sgSLC35F2, 100 nM | 108 ± 6.5
sgRNA knockout: sgSLC35F2, 1000 nM | 104 ± 35
sgRNA knockout: sgSLC35F2, 10000 nM | 101 ± 12
sgRNA knockout: sgXBP1, 10 nM | 96.3 ± 12
sgRNA knockout: sgXBP1, 100 nM | 112 ± 1.8
sgRNA knockout: sgXBP1, 1000 nM | 109 ± 20
sgRNA knockout: sgXBP1, 10000 nM | 94.4 ± 15
